# These are yes or no findings as the source states them, for the method shown. Binding seen in cells or lysates may run through a third protein. Some results given as binding are weak or reduced against the parent protein; the word gives no strength. For part of these data: Tags and fused reporters may be left off the sequences shown.
# Sequences of proteins named here, by UniProt entry; tags and fusion partners are left off.
# UniProt P08238: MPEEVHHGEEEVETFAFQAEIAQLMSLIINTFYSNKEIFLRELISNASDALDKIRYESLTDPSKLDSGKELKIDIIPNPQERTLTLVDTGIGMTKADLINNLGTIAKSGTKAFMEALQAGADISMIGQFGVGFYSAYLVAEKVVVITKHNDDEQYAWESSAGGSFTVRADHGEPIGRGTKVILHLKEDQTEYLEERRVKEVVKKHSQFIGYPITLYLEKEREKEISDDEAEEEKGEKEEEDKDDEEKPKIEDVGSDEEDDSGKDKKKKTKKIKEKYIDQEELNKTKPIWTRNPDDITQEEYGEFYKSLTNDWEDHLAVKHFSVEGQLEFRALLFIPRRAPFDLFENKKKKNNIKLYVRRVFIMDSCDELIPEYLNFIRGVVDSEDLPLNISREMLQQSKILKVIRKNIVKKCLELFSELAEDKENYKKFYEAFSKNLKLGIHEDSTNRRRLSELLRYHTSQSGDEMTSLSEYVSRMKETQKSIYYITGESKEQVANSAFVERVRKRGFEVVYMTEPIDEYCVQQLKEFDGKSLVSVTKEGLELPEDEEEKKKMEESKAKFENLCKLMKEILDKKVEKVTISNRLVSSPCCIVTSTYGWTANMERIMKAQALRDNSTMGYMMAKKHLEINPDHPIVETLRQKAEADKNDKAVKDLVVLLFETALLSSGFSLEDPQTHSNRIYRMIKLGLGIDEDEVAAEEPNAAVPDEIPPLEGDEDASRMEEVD
# T1: HA-FLAG-tagged Cyclin-F (wild type), in SH-SY5Y cells (UniProt P41002)
# T1 sequence: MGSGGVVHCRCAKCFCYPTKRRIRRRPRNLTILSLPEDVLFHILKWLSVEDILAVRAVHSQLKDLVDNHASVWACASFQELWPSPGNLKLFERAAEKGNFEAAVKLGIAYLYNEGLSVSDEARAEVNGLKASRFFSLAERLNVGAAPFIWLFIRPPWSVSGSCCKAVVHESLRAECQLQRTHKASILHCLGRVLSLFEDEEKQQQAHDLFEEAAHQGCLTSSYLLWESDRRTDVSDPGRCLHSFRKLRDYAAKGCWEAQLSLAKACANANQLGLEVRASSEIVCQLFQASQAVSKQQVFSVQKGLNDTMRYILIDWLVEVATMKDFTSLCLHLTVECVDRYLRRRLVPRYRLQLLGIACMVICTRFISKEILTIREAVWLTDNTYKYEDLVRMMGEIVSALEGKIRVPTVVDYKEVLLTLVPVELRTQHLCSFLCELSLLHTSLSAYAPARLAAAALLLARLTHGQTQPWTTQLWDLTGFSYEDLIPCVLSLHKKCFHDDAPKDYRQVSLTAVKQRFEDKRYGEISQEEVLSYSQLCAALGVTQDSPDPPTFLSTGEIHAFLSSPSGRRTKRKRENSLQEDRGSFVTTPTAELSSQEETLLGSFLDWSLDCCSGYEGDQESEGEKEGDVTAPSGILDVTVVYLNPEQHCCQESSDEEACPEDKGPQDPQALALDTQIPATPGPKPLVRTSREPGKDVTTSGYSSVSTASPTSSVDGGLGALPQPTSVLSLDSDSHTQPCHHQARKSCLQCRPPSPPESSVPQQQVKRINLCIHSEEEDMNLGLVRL
# B1: DNAJC7 (endogenous, human) (protein, UniProt Q99615 1-494)
# chain: MAAAAECDVVMAATEPELLDDQEAKREAETFKEQGNAYYAKKDYNEAYNYYTKAIDMCPKNASYYGNRAATLMMLGRFREALGDAQQSVRLDDSFVRGHLREGKCHLSLGNAMAACRSFQRALELDHKNAQAQQEFKNANAVMEYEKIAETDFEKRDFRKVVFCMDRALEFAPACHRFKILKAECLAMLGRYPEAQSVASDILRMDSTNADALYVRGLCLYYEDCIEKAVQFFVQALRMAPDHEKACIACRNAKALKAKKEDGNKAFKEGNYKLAYELYTEALGIDPNNIKTNAKLYCNRGTVNSKLRKLDDAIEDCTNAVKLDDTYIKAYLRRAQCYMDTEQYEEAVRDYEKVYQTEKTKEHKQLLKNAQLELKKSKRKDYYKILGVDKNASEDEIKKAYRKRALMHHPDRHSGASAEVQKEEEKKFKEVGEAFTILSDPKKKTRYDSGQDLDEEGMNMGDFDPNNIFKAFFGGPGGFSFEASGPGNFFFQFG
# B2: heat shock factor 1 (HSF1) (endogenous), Q00613 1-529 (protein)
# chain: MDLPVGPGAAGPSNVPAFLTKLWTLVSDPDTDALICWSPSGNSFHVFDQGQFAKEVLPKYFKHNNMASFVRQLNMYGFRKVVHIEQGGLVKPERDDTEFQHPCFLRGQEQLLENIKRKVTSVSTLKSEDIKIRQDSVTKLLTDVQLMKGKQECMDSKLLAMKHENEALWREVASLRQKHAQQQKVVNKLIQFLISLVQSNRILGVKRKIPLMLNDSGSAHSMPKYSRQFSLEHVHGSGPYSAPSPAYSSSSLYAPDAVASSGPIISDITELAPASPMASPGGSIDERPLSSSPLVRVKEEPPSPPQSPRVEEASPGRPSSVDTLLSPTALIDSILRESEPAPASVTALTDARGHTDTEGRPPSPPPTSTPEKCLSVACLDKNELSDHLDAMDSNLDNLQTMLSSHGFSVDTSALLDLFSPSVTVPDMSLPDLDSSLASIQELLSPQEPPRPPEAENSSPDSGKQLVHYTAQPLFLLDPGSVDTGSNDLPVLFELGEGSYFSEGDGFAEDPTISLLTGSEPPKAKDPTVS
# B3: TBK1 (endogenous) (protein, UniProt Q9UHD2 1-729)
# chain: MQSTSNHLWLLSDILGQGATANVFRGRHKKTGDLFAIKVFNNISFLRPVDVQMREFEVLKKLNHKNIVKLFAIEEETTTRHKVLIMEFCPCGSLYTVLEEPSNAYGLPESEFLIVLRDVVGGMNHLRENGIVHRDIKPGNIMRVIGEDGQSVYKLTDFGAARELEDDEQFVSLYGTEEYLHPDMYERAVLRKDHQKKYGATVDLWSIGVTFYHAATGSLPFRPFEGPRRNKEVMYKIITGKPSGAISGVQKAENGPIDWSGDMPVSCSLSRGLQVLLTPVLANILEADQEKCWGFDQFFAETSDILHRMVIHVFSLQQMTAHKIYIHSYNTATIFHELVYKQTKIISSNQELIYEGRRLVLEPGRLAQHFPKTTEENPIFVVSREPLNTIGLIYEKISLPKVHPRYDLDGDASMAKAITGVVCYACRIASTLLLYQELMRKGIRWLIELIKDDYNETVHKKTEVVITLDFCIRNIEKTVKVYEKLMKINLEAAELGEISDIHTKLLRLSSSQGTIETSLQDIDSRLSPGGSLADAWAHQEGTHPKDRNVEKLQVLLNCMTEIYYQFKKDKAERRLAYNEEQIHKFDKQKLYYHATKAMTHFTDECVKKYEAFLNKSEEWIRKMLHLRKQLLSLTNQCFDIEEEVSKYQEYTNELQETLPQKMFTASSGIKHTMTPIYPSSNTLVEMTLGMKKLKEEMEGVVKELAENNHILERFGSLTMDGGLRNVDCL
# Experiments:
# [1] = biological target: T1, HA-FLAG-tagged Cyclin-F (wild type), in SH-SY5Y cells; experiment: co-IP; lysates of parental (mock), HA-FLAG-FBXO28 or HA-FLAG-CCNF overexpressing SH-SY5Y cells; HA or Flag immunoprecipitation overnight at 4 C, SDS-PAGE and immunoblotting of endogenous partners
# HA-FLAG-HSP90AB1, P08238 = experiment: co-IP; SH-SY5Y CCNF WT and CCNF KO cells expressing HA-FLAG-HSP90AB1 or mock; mild lysis, HA-IP, SDS-PAGE and immunoblotting of endogenous clients and co-factors; settings: remark: other sources report otherwise
# HA-FLAG-HSP90AB1 = HA-FLAG-HSP90AB1 (UniProt P08238); experiment: as above
binder,measurement,setting,value
B1,binding,[1],binds
B2,binding,"HA-FLAG-HSP90AB1, P08238",binds
B3,binding,HA-FLAG-HSP90AB1,binds

# Reference: paper PMC9481933
